In patent US20080171343A1 (UNIVERSITY OF MANCHESTER, published 2008):
No constants are given. Whether binding was seen depends on the method and setting. Some entries that bind do so weakly or less than the wild type.

Chains of the proteins cited; added tags and fusions are not shown. Residues count along the entry.
UniProt P08603, residues 19-1231: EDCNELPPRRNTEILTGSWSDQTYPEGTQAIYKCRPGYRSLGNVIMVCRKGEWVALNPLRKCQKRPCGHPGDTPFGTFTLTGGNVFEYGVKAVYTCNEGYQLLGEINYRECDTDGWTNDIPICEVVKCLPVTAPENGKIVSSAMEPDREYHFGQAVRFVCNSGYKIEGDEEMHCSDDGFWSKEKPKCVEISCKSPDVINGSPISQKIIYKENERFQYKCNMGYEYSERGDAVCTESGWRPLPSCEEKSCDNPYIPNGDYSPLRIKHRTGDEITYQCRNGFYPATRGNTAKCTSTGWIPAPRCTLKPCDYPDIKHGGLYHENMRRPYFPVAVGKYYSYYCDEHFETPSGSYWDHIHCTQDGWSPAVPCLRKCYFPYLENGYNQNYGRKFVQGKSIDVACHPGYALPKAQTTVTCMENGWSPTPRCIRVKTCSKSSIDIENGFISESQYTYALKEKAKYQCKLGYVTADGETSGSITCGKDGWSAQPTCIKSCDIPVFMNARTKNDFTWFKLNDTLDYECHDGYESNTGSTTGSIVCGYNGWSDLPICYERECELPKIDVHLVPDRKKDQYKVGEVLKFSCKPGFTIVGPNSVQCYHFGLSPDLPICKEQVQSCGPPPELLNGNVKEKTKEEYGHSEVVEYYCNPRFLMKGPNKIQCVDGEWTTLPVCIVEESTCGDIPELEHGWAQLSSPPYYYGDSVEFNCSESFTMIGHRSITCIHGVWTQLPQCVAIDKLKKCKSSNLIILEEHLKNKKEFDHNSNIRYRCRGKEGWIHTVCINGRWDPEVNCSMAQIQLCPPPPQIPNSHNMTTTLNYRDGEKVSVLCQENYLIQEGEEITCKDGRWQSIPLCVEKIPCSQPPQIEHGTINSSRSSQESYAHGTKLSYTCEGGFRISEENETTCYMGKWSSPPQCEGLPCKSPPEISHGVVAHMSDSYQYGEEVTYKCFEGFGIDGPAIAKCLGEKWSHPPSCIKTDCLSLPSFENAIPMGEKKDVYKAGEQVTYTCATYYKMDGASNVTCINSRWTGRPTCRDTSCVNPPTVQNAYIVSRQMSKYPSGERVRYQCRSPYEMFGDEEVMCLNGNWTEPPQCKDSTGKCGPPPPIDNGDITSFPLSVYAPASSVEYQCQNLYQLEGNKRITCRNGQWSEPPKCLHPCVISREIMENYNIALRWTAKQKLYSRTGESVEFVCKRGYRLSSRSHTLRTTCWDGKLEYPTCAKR

How the values were obtained:
[1] = molecular target: T1, fibromodulin (bovine, UniProt P13605 19-376, glycosylated (N-linked oligosaccharides including keratan sulphate), as isolated); assay: microtitre plate assay, FMOD coated, full length FH detected with polyclonal anti-FH antibody
T1 construct: Isolated from tissue; coated on microtitre plates at 10 ug/ml; also called FMOD; untreated (glycosylated) FMOD
T1 sequence (looked up): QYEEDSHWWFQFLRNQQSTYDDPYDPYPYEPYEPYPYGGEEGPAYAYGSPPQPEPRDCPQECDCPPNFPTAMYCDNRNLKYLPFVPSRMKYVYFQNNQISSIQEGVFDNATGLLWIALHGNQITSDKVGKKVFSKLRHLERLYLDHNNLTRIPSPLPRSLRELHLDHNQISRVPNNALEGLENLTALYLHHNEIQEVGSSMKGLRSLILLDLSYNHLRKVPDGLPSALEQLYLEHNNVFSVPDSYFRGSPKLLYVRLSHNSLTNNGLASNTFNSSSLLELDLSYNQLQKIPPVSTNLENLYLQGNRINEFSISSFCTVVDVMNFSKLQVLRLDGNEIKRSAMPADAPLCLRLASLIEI

[2] = molecular target: T1, fibromodulin; assay: plate assay: untreated (glycosylated) FMOD coated on microtitre wells, full length FH in fluid phase, detection with polyclonal anti-FH antibody, A490
[3] = molecular target: T1, fibromodulin; assay: plate assay: FMOD coated on microtitre wells at 10 ug/ml, unlabelled protein in fluid phase, detection with polyclonal anti-FH antibody, A490, background subtracted

Measured: binding

full length Factor H (from UniProt P08603 19-1231)
binds: all assays above
